Measured values as given in article PMC4655273, “Schwann Cell Expressed Nogo-B Modulates Axonal Branching of Adult Sensory Neurons Through the Nogo-B Receptor NgBR” (Frontiers in Cellular Neuroscience, 2015).
These are yes or no findings as the source states them, for the method shown. In cells and extracts the contact can be indirect. Some results given as binding are weak or reduced against the parent protein; the word gives no strength.

Target: T1, Nogo-B (mouse (endogenous in primary Schwann cells)) (UniProt Q99P72)
T1 sequence: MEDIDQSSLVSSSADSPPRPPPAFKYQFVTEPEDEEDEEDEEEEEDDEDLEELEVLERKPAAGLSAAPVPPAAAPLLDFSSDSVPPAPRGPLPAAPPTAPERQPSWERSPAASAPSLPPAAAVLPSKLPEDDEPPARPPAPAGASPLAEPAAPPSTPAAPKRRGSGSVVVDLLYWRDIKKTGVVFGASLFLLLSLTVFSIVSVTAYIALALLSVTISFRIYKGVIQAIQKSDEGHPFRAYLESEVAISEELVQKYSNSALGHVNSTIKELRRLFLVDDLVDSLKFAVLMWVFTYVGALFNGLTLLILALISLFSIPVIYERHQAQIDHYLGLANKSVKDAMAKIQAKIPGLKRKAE
Test: co-IP; lysate of a co-culture of wildtype Schwann cells and nogo-a/b deficient sensory neurons; incubated with Bianca antiserum or rabbit control IgG for 6 h at 4°C, then protein A/G agarose o/n at 4°C; washed with lysis buffer; Western blot with Bianca antiserum and NgBR antibody

B1: Nogo-B receptor NgBR (receptor, mouse (endogenous in sensory neurons), UniProt Q99LJ8 1-297, looked up)
chain: MTGLYELVWRVLHALLCLHLTLTSWLRVRFGTWNWIWRRCCRAASAAVLAPLGFTLRKPRAVGRNRRHHRHPHGGPGPGPGPAATHPRLRWRADVRSLQKLPVHMGLLVTEEVQEPSFSDIASLVVWCMAVGISYISVYDHQGIFKRNNSRLMDEILKQQQELLGQDCSKYSAEFANSNDKDDQDLNCPSAVKVLSPEDGKADIVRAAQDFCQLVAQQQRKPTDLDVDLLGSLLSSHGFPDPDLVLKFGPVDSTLGFLPWQIRLTEIVSLPSHLNISYEDFFSALRQYAACEQRLGK
binding: binds
